Measurements reported in patent publication US7923573B2, “Benzene compound having 2 or more substituents” (Daiichi Sankyo Company, Limited, priority 2004, dated 2011).
Some results were stated once for a whole list of compounds, not compound by compound.

What follows are molecules tested against T1, LXRβ (Homo sapiens, UniProt P55055) (assay: Co-transfection assay (LXR/LXRE luciferase reporter), LXRβ). Conditions: CV-1 cells transfected with hLXRβ and LXRE luciferase reporter; agonist activity; read-out: EC50 value against LXRβ.
T1 construct: expressed in transfected cells; host or cells: CV-1 African green monkey kidney cells (ATCC CCL-70)
T1 sequence (P55055 1-460): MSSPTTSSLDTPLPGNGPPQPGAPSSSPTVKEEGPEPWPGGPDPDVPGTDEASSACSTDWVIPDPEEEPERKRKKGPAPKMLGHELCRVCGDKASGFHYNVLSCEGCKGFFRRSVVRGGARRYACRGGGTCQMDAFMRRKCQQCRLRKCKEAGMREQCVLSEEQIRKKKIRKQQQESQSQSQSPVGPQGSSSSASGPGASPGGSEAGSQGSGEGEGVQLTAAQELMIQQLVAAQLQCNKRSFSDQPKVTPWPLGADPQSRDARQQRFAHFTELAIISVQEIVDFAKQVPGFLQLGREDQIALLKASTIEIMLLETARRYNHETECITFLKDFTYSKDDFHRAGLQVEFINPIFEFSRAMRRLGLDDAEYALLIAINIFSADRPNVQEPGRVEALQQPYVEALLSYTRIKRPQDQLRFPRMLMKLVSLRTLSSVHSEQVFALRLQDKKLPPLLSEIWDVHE
T1 sequence (P19793 1-462 partner): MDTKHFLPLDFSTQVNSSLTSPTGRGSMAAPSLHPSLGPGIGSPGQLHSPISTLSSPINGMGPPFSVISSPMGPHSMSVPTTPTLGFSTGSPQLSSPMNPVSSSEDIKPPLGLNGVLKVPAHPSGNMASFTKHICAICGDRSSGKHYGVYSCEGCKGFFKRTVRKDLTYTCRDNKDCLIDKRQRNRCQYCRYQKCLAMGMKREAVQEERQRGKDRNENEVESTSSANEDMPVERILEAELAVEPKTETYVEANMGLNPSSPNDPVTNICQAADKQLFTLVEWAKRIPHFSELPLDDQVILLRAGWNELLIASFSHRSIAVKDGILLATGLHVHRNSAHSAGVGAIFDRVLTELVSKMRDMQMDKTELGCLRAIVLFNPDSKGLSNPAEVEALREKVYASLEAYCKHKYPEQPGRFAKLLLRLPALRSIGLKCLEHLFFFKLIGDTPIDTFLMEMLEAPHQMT
Assay type: cell-based

Structure (SMILES) | EC50 [µM]
CC(C)(C)OC(=O)c1c(COc2ccc(-c3ccc(CC(=O)O)cc3)cc2)ccc(F)c1O [Example 1, (4′-{[2-(tert-Butoxycarbonyl)-4-fluoro-3-hydroxybenzyl]oxy}-1,1′-biphenyl-4-yl)acetic acid] | ≤ 3
CC(C)(C)OC(=O)c1cc(C(F)(F)F)ccc1COc1ccc(-c2cccc(CC(=O)O)c2)cc1 [Example 2, (4′-{[2-(tert-Butoxycarbonyl)-4-(trifluoromethyl)benzyl]oxy}-1,1′-biphenyl-3-yl)acetic acid] | ≤ 3
CC(C)(C)OC(=O)c1cc(C(F)(F)F)ccc1COc1ccc(-c2ccc(CC(=O)O)cc2)cc1 [Example 3, (4′-{[2-(tert-Butoxycarbonyl)-4-(trifluoromethyl)benzyl]oxy}-1,1′-biphenyl-4-yl)acetic acid] | ≤ 3
CC(C)(C)OC(=O)c1cc(C(F)(F)F)ccc1COc1ccc(-c2ccc(CC(=O)O)s2)cc1 [Example 4, [5-(4-{[2-(tert-Butoxycarbonyl)-4-(trifluoromethyl)benzyl]oxy}phenyl)-2-thienyl]acetic acid] | ≤ 3
CC(C)(C)OC(=O)c1c(COc2ccc(-c3ccc(CC(=O)O)cc3)cc2)ccc(Cl)c1O [Example 5, (4′-{[2-(tert-Butoxycarbonyl)-4-chloro-3-hydroxybenzyl]oxy}-1,1′-biphenyl-4-yl)acetic acid] | ≤ 3
COC(=O)Cc1ccc(-c2ccc(OCc3ccc(C(F)(F)F)c(O)c3C(=O)OC(C)(C)C)cc2)cc1 [Example 6, tert-Butyl 2-hydroxy-6-[({4′-[(methoxycarbonyl)methyl]-1,1′-biphenyl-4-yl]oxy}methyl]-3-(trifluoromethyl)benzoate] | ≤ 3
CC(C)(C)OC(=O)c1c(COc2ccc(-c3ccc(CC(=O)O)cc3)cc2)ccc(C(F)(F)F)c1O [Example 7, (4′-{[2-(tert-Butoxycarbonyl)-3-hydroxy-4-(trifluoromethyl)benzyl]oxy}-1,1′-biphenyl-4-yl)acetic acid] | ≤ 3
COC(=O)Cc1cccc(-c2ccc(OCc3ccc(C(F)(F)F)c(O)c3C(=O)OC(C)(C)C)cc2)c1 [Example 8, tert-Butyl 2-hydroxy-6-[({3′-[(methoxycarbonyl)methyl]-1,1′-biphenyl-4-yl}oxy)methyl]-3-(trifluoromethyl)benzoate] | ≤ 3
CC(C)(C)OC(=O)c1c(COc2ccc(-c3cccc(CC(=O)O)c3)cc2)ccc(C(F)(F)F)c1O [Example 9, (4′-{[2-(tert-Butoxycarbonyl)-3-hydroxy-4-(trifluoromethyl)benzyl]oxy}-1,1′-biphenyl-3-yl)acetic acid] | ≤ 3
CC(C)(C)OC(=O)c1c(COc2ccc(-c3ccc(CC(=O)O)cc3)cc2)ccc(C(C)(C)C)c1O [Example 10, (4′-{[2-(tert-Butoxycarbonyl)-4-tert-butyl-3-hydroxybenzyl]oxy}-1,1′-biphenyl-4-yl)acetic acid] | ≤ 3
CC(C)(C)OC(=O)c1c(COc2ccc(-c3ccc(CC(=O)O)c(F)c3)cc2)ccc(C(F)(F)F)c1O [Example 11, (4′-{[2-(tert-Butoxycarbonyl)-3-hydroxy-4-(trifluoromethyl)benzyl]oxy}-3-fluoro-1,1′-biphenyl-4-yl)acetic acid] | ≤ 3
CC(C)(C)OC(=O)c1c(COc2ccc(-c3ccc(CC(=O)O)cc3)cc2F)ccc(C(F)(F)F)c1O [Example 12, (4′-{[2-(tert-Butoxycarbonyl)-3-hydroxy-4-(trifluoromethyl)benzyl]oxy}-3′-fluoro-1,1′-biphenyl-4-yl)acetic acid] | ≤ 3
CC(C)(C)OC(=O)c1c(COc2ccc(-c3ccc(CC(=O)O)cc3)c(Cl)c2)ccc(C(F)(F)F)c1O [Example 13, (4′-{[2-(tert-Butoxycarbonyl)-3-hydroxy-4-(trifluoromethyl)benzyl]oxy}-2′-chloro-1,1′-biphenyl-4-yl)acetic acid] | ≤ 3
CC(C)(C)OC(=O)c1c(COc2ccc(-c3ccc(CC(=O)O)cc3)c(F)c2)ccc(C(F)(F)F)c1O [Example 14, (4′-{[2-(tert-Butoxycarbonyl)-3-hydroxy-4-(trifluoromethyl)benzyl]oxy}-2′-fluoro-1,1′-biphenyl-4-yl)acetic acid] | ≤ 3
CC(C)(C)OC(=O)c1c(COc2ccc(-c3ccc(C4(C(=O)O)CC4)cc3)cc2)ccc(C(F)(F)F)c1O [Example 15, 1-(4′-{[2-(tert-Butoxycarbonyl)-3-hydroxy-4-(trifluoromethyl)benzyl]oxy}-1,1′-biphenyl-4-yl)cyclopropanecarboxylic acid] | ≤ 3
CC(C)(C)OC(=O)c1c(COc2ccc(-c3ccc(CC(=O)O)cc3F)cc2)ccc(C(F)(F)F)c1O [Example 16, (4′-{[2-(tert-Butoxycarbonyl)-3-hydroxy-4-(trifluoromethyl)benzyl]oxy}-2-fluoro-1,1′-biphenyl-4-yl)acetic acid] | ≤ 3
Cc1cc(-c2ccc(OCc3ccc(C(F)(F)F)c(O)c3C(=O)OC(C)(C)C)cc2)ccc1CC(=O)O [Example 17, (4′-{[2-(tert-Butoxycarbonyl)-3-hydroxy-4-(trifluoromethyl)benzyl]oxy}-3-methyl-1,1′-biphenyl-4-yl)acetic acid] | ≤ 3
CC(C)(C)OC(=O)c1c(COc2ccc(-c3ccc(CC(=O)O)c(Cl)c3)cc2)ccc(C(F)(F)F)c1O [Example 18, (4′-{[2-(tert-Butoxycarbonyl)-3-hydroxy-4-(trifluoromethyl)benzyl]oxy}-3-chloro-1,1′-biphenyl-4-yl)acetic acid] | ≤ 3
Cc1cc(CC(=O)O)ccc1-c1ccc(OCc2ccc(C(F)(F)F)c(O)c2C(=O)OC(C)(C)C)cc1 [Example 19, (4′-{[2-(tert-Butoxycarbonyl)-3-hydroxy-4-(trifluoromethyl)benzyl]oxy}-2-methyl-1,1′-biphenyl-4-yl)acetic acid] | ≤ 3
CC(C)(C)OC(=O)c1c(COc2ccc(-c3ccc(C4(C(=O)O)CC4)c(F)c3)cc2)ccc(C(F)(F)F)c1O [Example 20, 1-(4′-{[2-(tert-Butoxycarbonyl)-3-hydroxy-4-(trifluoromethyl)benzyl]oxy}-3-fluoro-1,1′-biphenyl-4-yl)cyclopropanecarboxylic acid] | ≤ 3
CC(C)c1ccc(COc2ccc(-c3ccc(CC(=O)O)cc3)cc2)c(C(=O)OC(C)(C)C)c1O [Example 21, (4′-{[2-(tert-Butoxycarbonyl)-3-hydroxy-4-isopropylbenzyl]oxy}-1,1′-biphenyl-4-yl)acetic acid] | ≤ 3
COc1cc(CC(=O)O)ccc1-c1ccc(OCc2ccc(C(F)(F)F)c(O)c2C(=O)OC(C)(C)C)cc1 [Example 22, (4′-{[2-(tert-Butoxycarbonyl)-3-hydroxy-4-(trifluoromethyl)benzyl]oxy}-2-methoxy-1,1′-biphenyl-4-yl)acetic acid] | ≤ 3
CC(C)(C)OC(=O)c1c(COc2ccc(-c3ccc(CC(=O)O)cc3Cl)cc2)ccc(C(F)(F)F)c1O [Example 23, (4′-{[2-(tert-Butoxycarbonyl)-3-hydroxy-4-(trifluoromethyl)benzyl]oxy}-2-chloro-1,1′-biphenyl-4-yl)acetic acid] | ≤ 3
COc1cc(-c2ccc(OCc3ccc(C(F)(F)F)c(O)c3C(=O)OC(C)(C)C)cc2)ccc1CC(=O)O [Example 24, (4′-{[2-(tert-Butoxycarbonyl)-3-hydroxy-4-(trifluoromethyl)benzyl]oxy}-3-methoxy-1,1′-biphenyl-4-yl)acetic acid] | ≤ 3
CC(C)(C)OC(=O)c1c(COc2ccc(-c3ccc(CC(=O)O)cc3C(F)(F)F)cc2)ccc(C(F)(F)F)c1O [Example 25, (4′-{[2-(tert-Butoxycarbonyl)-3-hydroxy-4-(trifluoromethyl)benzyl]oxy}-2-trifluoromethyl-1,1′-biphenyl-4-yl)acetic acid] | ≤ 3
CCc1cc(CC(=O)OC)ccc1-c1ccc(OCc2ccc(C(F)(F)F)c(O)c2C(=O)OC(C)(C)C)cc1 [Example 26, tert-Butyl 6-[({2′-ethyl-4′-[(methoxycarbonyl)methyl]-1,1′-biphenyl-4-yl}oxy)methyl]-2-hydroxy-3-(trifluoromethyl)benzoate] | ≤ 3
CC(C)(C)OC(=O)c1c(COc2ccc(-c3cccc(CC(=O)O)c3F)cc2)ccc(C(F)(F)F)c1O [Example 27, (4′-{[2-(tert-Butoxycarbonyl)-3-hydroxy-4-(trifluoromethyl)benzyl]oxy}-2-fluoro-1,1′-biphenyl-3-yl)acetic acid] | ≤ 3
CC(C)(C)OC(=O)c1c(COc2ccc(-c3ccc(CC(=O)O)s3)cc2)ccc(C(F)(F)F)c1O [Example 28, [5-(4-{[2-(tert-Butoxycarbonyl)-3-hydroxy-4-(trifluoromethyl)benzyl]oxy}phenyl)-2-thienyl]acetic acid] | ≤ 3
